# According to publication PMC5767323, “Differential NtcA Responsiveness to 2-Oxoglutarate Underlies the Diversity of C/N Balance Regulation in Prochlorococcus” (Frontiers in Microbiology, 2018):
# Tests used:
# [1] = target: T1, NtcA MIT9313 (Prochlorococcus sp. MIT9313) (UniProt Q7TUN1); assay: ITC; conditions: ITC: 50 mM Hepes, 350 mM NaCl, pH 7.5, 25 C, 0-10 mM 2OG, recombinant protein, protein details: His6 (pET-15b)
# T1 sequence (looked up, limits assumed): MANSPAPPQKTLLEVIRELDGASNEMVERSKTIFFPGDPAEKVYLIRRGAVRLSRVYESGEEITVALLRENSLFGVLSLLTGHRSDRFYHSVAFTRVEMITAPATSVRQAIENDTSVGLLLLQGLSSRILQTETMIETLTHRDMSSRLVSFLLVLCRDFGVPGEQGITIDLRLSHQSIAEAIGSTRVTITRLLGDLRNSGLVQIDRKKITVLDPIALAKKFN
# [2] = target: T1, NtcA MIT9313 (Prochlorococcus sp. MIT9313); assay: EMSA; conditions: 0-10 mM 2OG, 1 uM NtcA; EMSA: as Napolitano et al. 2012, 1 uM NtcA; recombinant protein; protein details: His6 (pET-15b)
# [3] = target: T2, NtcA SS120 (Prochlorococcus sp. SS120) (UniProt Q7VDU1); assay: ITC; conditions: no 2OG; ITC: 50 mM Hepes, 350 mM NaCl, pH 7.5, 25 C, 0-10 mM 2OG; recombinant protein; protein details: His6 (pET-15b)
# T2 sequence (looked up, limits assumed): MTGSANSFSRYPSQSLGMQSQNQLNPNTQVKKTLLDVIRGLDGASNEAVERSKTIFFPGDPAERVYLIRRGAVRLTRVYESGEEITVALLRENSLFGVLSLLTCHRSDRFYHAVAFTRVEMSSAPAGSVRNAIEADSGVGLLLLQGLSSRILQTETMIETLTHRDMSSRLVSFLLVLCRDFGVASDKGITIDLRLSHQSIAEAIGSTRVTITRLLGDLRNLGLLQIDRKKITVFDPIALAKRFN
# [4] = target: T3, NtcA MED4 (Prochlorococcus sp. MED4) (UniProt Q7TUG3); assay: ITC; conditions: no 2OG; ITC: 50 mM Hepes, 350 mM NaCl, pH 7.5, 25 C, 0-10 mM 2OG; recombinant protein; protein details: His6 (pET-15b)
# T3 sequence (looked up, limits assumed): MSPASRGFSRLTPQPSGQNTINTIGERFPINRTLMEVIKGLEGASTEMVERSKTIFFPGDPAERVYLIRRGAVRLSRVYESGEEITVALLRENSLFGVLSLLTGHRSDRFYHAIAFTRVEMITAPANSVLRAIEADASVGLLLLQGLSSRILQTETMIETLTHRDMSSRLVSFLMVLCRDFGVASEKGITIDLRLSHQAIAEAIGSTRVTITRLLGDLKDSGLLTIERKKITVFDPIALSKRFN
sequence,measurement,setting,value
"TAGAAGGTACCTGTTGCTACAAAAAG (double strand) [DNA1, glnA promoter MIT9313 wt]",Kd,[1]; no 2OG,0.97 µM
"TAGAAGAGAAAGGATCCGCAAAAAG / CTTTTTTGCGGATCCTTTCTCTTCTA [DNA2, glnA promoter MIT9313 mutated]",Kd,[1]; independent of 2OG,2.1 µM
same,binding result,[2],no binding
"CCAATAGTCACAAAAAGTACTTATTG (double strand) [DNA3, glnA promoter SS120 wt]",Kd,[3],6.7 µM
"AAAAAGTTACCTTTGATACATAAT (double strand) [DNA5, glnA promoter MED4 wt]",Kd,[4],4.8 µM

# Construct, isoform or probe ends are uncertain for at least one entry. For some assays here: Negatives hold for the conditions tested. Tags and fusion partners may be left off the protein sequences shown.
